Assay [1] has as its target T1, Frizzled3 (Fzd3)-HA (mouse) (UniProt Q61086).
T1 sequence: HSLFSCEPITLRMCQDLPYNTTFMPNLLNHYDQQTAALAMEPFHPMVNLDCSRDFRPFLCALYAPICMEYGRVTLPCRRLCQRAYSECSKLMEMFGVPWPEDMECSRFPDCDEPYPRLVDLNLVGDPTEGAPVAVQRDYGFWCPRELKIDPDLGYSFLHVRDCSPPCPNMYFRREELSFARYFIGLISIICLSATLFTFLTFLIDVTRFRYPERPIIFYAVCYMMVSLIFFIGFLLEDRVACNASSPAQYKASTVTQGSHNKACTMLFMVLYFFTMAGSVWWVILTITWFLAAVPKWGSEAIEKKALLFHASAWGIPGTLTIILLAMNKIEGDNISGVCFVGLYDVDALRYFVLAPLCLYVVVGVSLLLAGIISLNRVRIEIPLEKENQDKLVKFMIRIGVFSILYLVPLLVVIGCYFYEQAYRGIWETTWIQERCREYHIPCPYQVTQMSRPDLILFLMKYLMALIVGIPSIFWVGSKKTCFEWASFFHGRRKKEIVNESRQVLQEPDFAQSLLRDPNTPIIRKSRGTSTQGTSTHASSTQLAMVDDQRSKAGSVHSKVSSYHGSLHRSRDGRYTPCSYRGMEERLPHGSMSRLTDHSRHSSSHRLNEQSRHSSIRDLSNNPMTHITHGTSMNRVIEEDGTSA
In words: co-IP; HEK293T cells lysed 48 hr after transfection in IP buffer (20 mM Tris HCl pH 7.5, 150 mM NaCl, 1 mM EGTA, 0.1% TX-100); immunoprecipitated with anti-HA or anti-Myc antibodies and protein A/G agarose; immunoblot. (In general: Immunoblotting shows a protein as a band on a membrane.)

The next assay concerns the target T2, Shisa2-MycHis (mouse) (UniProt Q8QZV2).
T2 sequence: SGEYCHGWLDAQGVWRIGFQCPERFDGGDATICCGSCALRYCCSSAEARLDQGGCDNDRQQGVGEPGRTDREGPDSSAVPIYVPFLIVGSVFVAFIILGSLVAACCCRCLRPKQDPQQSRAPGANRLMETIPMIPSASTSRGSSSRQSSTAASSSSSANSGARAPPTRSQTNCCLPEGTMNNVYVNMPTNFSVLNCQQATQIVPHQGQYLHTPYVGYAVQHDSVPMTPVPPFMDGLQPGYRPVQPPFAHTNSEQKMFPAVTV
The description is as above.

No constants are given. Whether binding was seen depends on the method and setting. In cells and extracts the contact can be indirect. Some binding calls cover weakened binding; strength is not graded here. Where a sequence is shown, tags or fusion partners need not be part of it.

B1: Shisa2-MycHis (protein, UniProt Q8QZV2 34-295)
chain: SGEYCHGWLDAQGVWRIGFQCPERFDGGDATICCGSCALRYCCSSAEARLDQGGCDNDRQQGVGEPGRTDREGPDSSAVPIYVPFLIVGSVFVAFIILGSLVAACCCRCLRPKQDPQQSRAPGANRLMETIPMIPSASTSRGSSSRQSSTAASSSSSANSGARAPPTRSQTNCCLPEGTMNNVYVNMPTNFSVLNCQQATQIVPHQGQYLHTPYVGYAVQHDSVPMTPVPPFMDGLQPGYRPVQPPFAHTNSEQKMFPAVTV
Turning to B1, the binding result in assay [1] is reported as “binds”.

B2: Frizzled3 (Fzd3)-HA (receptor, UniProt Q61086 23-666)
chain: HSLFSCEPITLRMCQDLPYNTTFMPNLLNHYDQQTAALAMEPFHPMVNLDCSRDFRPFLCALYAPICMEYGRVTLPCRRLCQRAYSECSKLMEMFGVPWPEDMECSRFPDCDEPYPRLVDLNLVGDPTEGAPVAVQRDYGFWCPRELKIDPDLGYSFLHVRDCSPPCPNMYFRREELSFARYFIGLISIICLSATLFTFLTFLIDVTRFRYPERPIIFYAVCYMMVSLIFFIGFLLEDRVACNASSPAQYKASTVTQGSHNKACTMLFMVLYFFTMAGSVWWVILTITWFLAAVPKWGSEAIEKKALLFHASAWGIPGTLTIILLAMNKIEGDNISGVCFVGLYDVDALRYFVLAPLCLYVVVGVSLLLAGIISLNRVRIEIPLEKENQDKLVKFMIRIGVFSILYLVPLLVVIGCYFYEQAYRGIWETTWIQERCREYHIPCPYQVTQMSRPDLILFLMKYLMALIVGIPSIFWVGSKKTCFEWASFFHGRRKKEIVNESRQVLQEPDFAQSLLRDPNTPIIRKSRGTSTQGTSTHASSTQLAMVDDQRSKAGSVHSKVSSYHGSLHRSRDGRYTPCSYRGMEERLPHGSMSRLTDHSRHSSSHRLNEQSRHSSIRDLSNNPMTHITHGTSMNRVIEEDGTSA
On to B2, for which the binding result in the assay with Shisa2-MycHis (mouse) is listed as “binds”.
